{"source": "the supplement of paper PMC3334620", "note": "In all, about 33,000 sequences were measured (“E-score (-0.5 to 0.5)”: median about -0.016, highest 2% from about 0.3 on). Some of the results follow.", "data": [{"target": "T1, Yer184c (UniProt P39961)", "T1 sequence": "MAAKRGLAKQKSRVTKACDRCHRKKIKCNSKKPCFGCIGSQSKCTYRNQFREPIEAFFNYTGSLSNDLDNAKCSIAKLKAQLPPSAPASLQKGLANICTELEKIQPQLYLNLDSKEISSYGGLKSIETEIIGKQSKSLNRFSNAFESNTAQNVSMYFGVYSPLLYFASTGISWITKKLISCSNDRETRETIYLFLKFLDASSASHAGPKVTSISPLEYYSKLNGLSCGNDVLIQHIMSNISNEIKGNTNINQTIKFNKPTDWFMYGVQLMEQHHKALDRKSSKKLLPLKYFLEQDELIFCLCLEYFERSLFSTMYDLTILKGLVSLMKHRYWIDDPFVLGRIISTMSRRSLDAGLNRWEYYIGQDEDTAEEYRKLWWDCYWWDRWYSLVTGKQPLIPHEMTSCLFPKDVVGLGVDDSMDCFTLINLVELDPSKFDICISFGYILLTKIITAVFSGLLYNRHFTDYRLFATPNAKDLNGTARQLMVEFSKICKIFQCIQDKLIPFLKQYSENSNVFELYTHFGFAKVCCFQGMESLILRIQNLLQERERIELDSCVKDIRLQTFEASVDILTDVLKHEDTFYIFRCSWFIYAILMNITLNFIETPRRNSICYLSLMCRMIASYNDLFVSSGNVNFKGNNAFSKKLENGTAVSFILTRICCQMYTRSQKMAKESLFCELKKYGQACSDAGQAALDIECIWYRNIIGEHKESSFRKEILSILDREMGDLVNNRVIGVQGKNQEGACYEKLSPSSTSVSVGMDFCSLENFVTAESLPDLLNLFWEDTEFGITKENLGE", "assay": "PBM E-score (8-mer binding enrichment) (E-score (-0.5 to 0.5)); higher = stronger / more preferred TF binding", "conditions": "protein concentration: 100 nM; construct: GST-full length", "procedure,_shortened": "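PURExpress in vitro transcription/translation supplied GST-tagged yeast transcription factors, either full-length or DNA-binding domain. Applied at about 100-200 nM to universal all-10-mer Agilent arrays double-stranded by primer extension, the bound protein was detected with fluorescent anti-GST. E-scores, modified Wilcoxon-Mann-Whitney statistics, were given by the Universal PBM Analysis Suite to ungapped eight-base words pooled with their reverse complements after masliner normalisation.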", "values": [{"sequence": "AGGCAGCC", "PBM E-score": -0.039}, {"sequence": "AAAACGGG", "PBM E-score": 0.138}, {"sequence": "AATTGGGG", "PBM E-score": -0.256}, {"sequence": "GAAGCTCA", "PBM E-score": 0.0353}, {"sequence": "CGCCTCCC", "PBM E-score": -0.31}, {"sequence": "AGAATGAA", "PBM E-score": 0.172}, {"sequence": "TAGTTGGA", "PBM E-score": -0.00038}, {"sequence": "AGACGGTA", "PBM E-score": 0.022}, {"sequence": "TCGGCTAA", "PBM E-score": 0.313}, {"sequence": "GCTCAGAC", "PBM E-score": -0.0881}, {"sequence": "AACCCGTT", "PBM E-score": -0.11}, {"sequence": "ACTCGAGT", "PBM E-score": 0.184}, {"sequence": "CACCCAGC", "PBM E-score": -0.161}, {"sequence": "CACCACCG", "PBM E-score": -0.137}, {"sequence": "AGACTGCC", "PBM E-score": -0.0985}, {"sequence": "ACTAAGCT", "PBM E-score": 0.0231}, {"sequence": "AGAAGCGG", "PBM E-score": -0.0611}, {"sequence": "AGCCAGTC", "PBM E-score": -0.153}, {"sequence": "CCGTGGGC", "PBM E-score": 0.165}, {"sequence": "AGTTTGAG", "PBM E-score": 0.0666}, {"sequence": "AGTATGAA", "PBM E-score": 0.136}, {"sequence": "CAGAGGGC", "PBM E-score": -0.133}, {"sequence": "ACTACAGG", "PBM E-score": -0.0412}, {"sequence": "ATGACGAA", "PBM E-score": 0.0832}, {"sequence": "CTACCAGC", "PBM E-score": -0.275}, {"sequence": "ACTCGGAC", "PBM E-score": 0.208}, {"sequence": "CATAGTAG", "PBM E-score": -0.092}, {"sequence": "CTATGAGC", "PBM E-score": -0.119}, {"sequence": "AAGTCCCC", "PBM E-score": -0.18}, {"sequence": "AACCCGGG", "PBM E-score": 0.325}, {"sequence": "GAGGGTGA", "PBM E-score": -0.124}, {"sequence": "TAGCTAGA", "PBM E-score": 0.0272}, {"sequence": "AAGTACGG", "PBM E-score": 0.00519}, {"sequence": "AATGCCGC", "PBM E-score": 0.199}, {"sequence": "CGGCACCG", "PBM E-score": 0.346}, {"sequence": "GAACAACC", "PBM E-score": 0.115}, {"sequence": "CACGACTC", "PBM E-score": -0.065}, {"sequence": "CAATGCTC", "PBM E-score": -0.0842}, {"sequence": "ATTGTAAG", "PBM E-score": -0.113}, {"sequence": "CAAACTTG", "PBM E-score": 0.0441}, {"sequence": "GCAGTCGC", "PBM E-score": -0.128}, {"sequence": "ATAGGGGA", "PBM E-score": -0.191}, {"sequence": "GGCCGTGA", "PBM E-score": 0.22}, {"sequence": "ATGAGGCA", "PBM E-score": -0.215}, {"sequence": "GACGTTGC", "PBM E-score": 0.00411}, {"sequence": "ATATGCGC", "PBM E-score": -0.0739}, {"sequence": "ATATCATA", "PBM E-score": 0.227}, {"sequence": "AGGTACCC", "PBM E-score": -0.34}, {"sequence": "CTTATAGC", "PBM E-score": 0.024}, {"sequence": "CATCCAAC", "PBM E-score": -0.126}, {"sequence": "GATGTCGA", "PBM E-score": 0.128}, {"sequence": "CTAAGCCC", "PBM E-score": -0.0913}, {"sequence": "AATATTTC", "PBM E-score": 0.274}, {"sequence": "AGTTTGCG", "PBM E-score": -0.0989}, {"sequence": "TAGGAGCA", "PBM E-score": -0.221}, {"sequence": "AAGAATGG", "PBM E-score": -0.00899}, {"sequence": "CTGCCCTA", "PBM E-score": -0.129}, {"sequence": "CGATCGTA", "PBM E-score": 0.0612}, {"sequence": "AACTGGCG", "PBM E-score": -0.0873}, {"sequence": "CTACCTAG", "PBM E-score": -0.159}, {"sequence": "AAGGTAAT", "PBM E-score": 0.19}, {"sequence": "CGAGGGAC", "PBM E-score": -0.288}, {"sequence": "ACGGAATC", "PBM E-score": 0.301}, {"sequence": "AAAAGTCG", "PBM E-score": 0.0531}, {"sequence": "GTGATTAA", "PBM E-score": 0.107}, {"sequence": "GATTCTAC", "PBM E-score": -0.00683}, {"sequence": "TCGAGAGA", "PBM E-score": -0.0561}, {"sequence": "GCACGACA", "PBM E-score": -0.119}, {"sequence": "GCAGCCAC", "PBM E-score": -0.163}, {"sequence": "ATACTCCA", "PBM E-score": -0.081}, {"sequence": "ACCCTGTG", "PBM E-score": -0.124}, {"sequence": "CCCGGTTA", "PBM E-score": 0.108}, {"sequence": "CGAACTCA", "PBM E-score": 0.0627}, {"sequence": "AAACCAGT", "PBM E-score": -0.138}, {"sequence": "CGGCCGCA", "PBM E-score": 0.277}, {"sequence": "CAATCTCA", "PBM E-score": -0.144}, {"sequence": "AACTCCAT", "PBM E-score": -0.0972}, {"sequence": "GCGGTTCC", "PBM E-score": 0.0822}, {"sequence": "AAACGCGT", "PBM E-score": 0.0256}, {"sequence": "ATGACACA", "PBM E-score": 0.0871}, {"sequence": "CTTCCTCA", "PBM E-score": -0.13}, {"sequence": "AATTGATA", "PBM E-score": 0.211}, {"sequence": "ATGATCGC", "PBM E-score": -0.0434}, {"sequence": "CCCCTCTC", "PBM E-score": -0.322}, {"sequence": "AGCGGGAA", "PBM E-score": 0.104}, {"sequence": "CCTTAACC", "PBM E-score": -0.185}]}]}
